PubChem BioAssay AID686943 – Drosophila RNAi Screening Center, 2013

- Screen: 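Knockdowns that increase or decrease active ERK after insulin receptor stimulation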 (primary screen)
- System: Drosophila S2R+ haemocyte-like cells expressing YFP-tagged ERK (Rolled)
- Knock-down reagent: long dsRNA against Drosophila genes
- Challenge: insulin stimulation versus unstimulated cells; dose and duration not given
- Detection: 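Antibody staining for doubly phosphorylated ERK divided by ERK-YFP signal, as plate z-scores, in insulin-treated and untreated cells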
- Reading the numbers: replicate 1, z-score of dpERK with insulin: higher = more active ERK per ERK-YFP after insulin
The deposit covers about 23,000 reagents; below is a random part of those that have a named target and a result. 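Extra replicates exist only for a retested subset of genes; insulin dose and duration not given; both raised and lowered dpERK matter.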 Further read-outs or replicates are left out here. No sequences are given here. Not stated in the record: the amount of reagent, the time to read-out.

no.	Gene	DRSC id	replicate 1, z-score of dpERK with insulin
1	Vajk4	DRSC06589	0.6
2	Vajk4	DRSC07003	0.22
3	CG33333	DRSC13233	-2.12
4	CG34214	DRSC04490	0.02
5	Jon65Aiv (Jonah 65Aiv)	DRSC10644	0.65
6	msl-1 (male-specific lethal 1)	DRSC03573	-0.46
7	CG15172	DRSC02473	0.89
8	CG42809	DRSC02532	-0.37
9	sll (slalom)	DRSC16271	-0.38
10	Ldsdh1 (Lipid droplet subset dehydrogenase 1)	DRSC18219	0.3
11	Ir94f (Ionotropic receptor 94f)	DRSC13621	-0.01
12	CG3091	DRSC18274	0
13	CG5339	DRSC04496	0.61
14	CG13766	DRSC02271	0.34
15	CG34025	DRSC08014	-0.2
16	CanB2 (Calcineurin B2)	DRSC07355	0.26
17	Ddx1 (Dead-box-1)	DRSC11862	-0.43
18	Had2 (beta Hydroxy acid dehydrogenase 2)	DRSC05971	0.02
19	CecB (Cecropin B)	DRSC16605	0.62
20	Lasp	DRSC10379	-0.02
21	CG3776	DRSC04417	-0.35
22	Gr58c (Gustatory receptor 58c)	DRSC04136	0.52
23	RpL11 (Ribosomal protein L11)	DRSC07537	-3.71
24	Doc1 (Dorsocross1)	DRSC11146	-0.27
25	Top3alpha (Topoisomerase 3alpha)	DRSC03460	0.09
26	CG8927	DRSC16458	-0.58

Reformatted: entries from further up
Gene,DRSC id,"replicate 1, z-score of dpERK with insulin"
Vajk4,DRSC07003,0.22
CG33333,DRSC13233,-2.12
CG34214,DRSC04490,0.02
Jon65Aiv (Jonah 65Aiv),DRSC10644,0.65
msl-1 (male-specific lethal 1),DRSC03573,-0.46
CG15172,DRSC02473,0.89
CG42809,DRSC02532,-0.37

The results go on.
no.	Gene	DRSC id	replicate 1, z-score of dpERK with insulin
27	mRpL4 (mitochondrial ribosomal protein L4)	DRSC03562	0.03
28	Irbp18 (Inverted repeat binding protein 18 kDa)	DRSC10612	0.48
29	CG3356	DRSC04358	0.48
30	CG1792	DRSC15290	-0.1
31	Golgin245 (Golgin-245)	DRSC04374	0.52
32	Golgin245 (Golgin-245)	DRSC22012	0.26
33	CG10175	DRSC13628	0.08
34	CG10175	DRSC14200	0.74
35	CG10175	DRSC21981	-0.02
36	alphaTry (alphaTrypsin)	DRSC07577	0.72
37	viaf (viral IAP-associated factor)	DRSC10326	-0.36
38	ng2 (new glue 2)	DRSC18803	0.02
39	Vajk3	DRSC01883	-0.23
40	Drsl2 (Drosomycin-like 2)	DRSC08160	-0.9
41	CG13065	DRSC09948	0.33
42	CG13607	DRSC14610	-0.23
43	bora (aurora borealis)	DRSC10744	0.72
44	CG5346	DRSC15778	-1.01
45	CG12121	DRSC17816	0.72
46	CG15743	DRSC19709	0
47	CG13685	DRSC10043	0.18
48	CG1316	DRSC08304	-0.2
49	roh (reduction of Rh1)	DRSC04003	-0.2
50	CG31265	DRSC15745	0.51
51	CG30286	DRSC04070	-0.13
52	CG30151	DRSC05888	-0.59
53	Pdfr (Pigment-dispersing factor receptor)	DRSC18614	-1.51
54	CG9014	DRSC01979	-0.17
55	CG15404	DRSC00418	0.22
56	trbd (trabid)	DRSC16494	-1.32
57	Sec15 (Secretory 15)	DRSC16179	-1.47
